Library screening results

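Viability assay of Plasmodium falciparum sporozoites; the read-out is not stated. The concentration is filed as 10 mM, unlikely as a test dose, so the dose is not known. Higher reads as lower viability (inferred: compounds with an IC50 in retests scored well above the rest). Strong results were mostly tested again. About 34,000 compounds were tested under these conditions; 0.84% (about 280) showed 50% or more at least once.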

Each number is a percent effect as filed. The controls that fix the scale are not given in the record; negative values are as filed. Compounds were drawn at random from those tested, without regard to their results. Two or more numbers in one place are separate tests of the same structure; such repeats can differ widely.

CC(O)CN1CCN(Cc2cccc(C(=O)N3CCCCC3)c2)CC1 (centres undefined) gave 9.571%. With CC(C)C1CN(C(=O)c2nccnc2N)CCS1 (centres undefined) the screen gave -0.6543%. CN1CCC2(CCN(S(=O)(=O)c3ccc(-c4cnco4)s3)CC2)C1 read 22.34% & 27.2%. Result for [H][C@@]12CCN(C(=O)Cc3cccs3)C[C@@]1([H])O[C@H](c1noc(C)n1)C2 was -16.79%. For CC(=O)N1CCC2(CC1)CN(C(=O)c1ccc3c(c1)OCCO3)C2 the result was -0.1711%. Cc1[nH]c(=O)[nH]c(=O)c1CN1CCCC(CCc2c(F)cccc2F)C1 (centres undefined) read -0.3529%. Cc1ccccc1N1CC2(CCN(S(=O)(=O)c3cccs3)C2)CC1=O (centres undefined) gave 6.035%. [H][C@@]12CN(Cc3cccc(Cl)c3)C[C@]1([H])C2CN (some centres undefined) gave 10.25%.

O=C(O)c1ccc(F)c(S(=O)(=O)N2CCOc3ccccc32)c1 gave 12.99%. With CC(=O)Nc1nc(C(=O)NC(C)c2ccncc2)cs1 (centres undefined) the screen gave -6.02%. Result for O=C(NC[C@H]1CC[C@H](c2ccnc3ncnn32)CC1)C1CC1 was 9.399%. With Cc1cc(O)nc(C2CCCNC2)n1.Cl (centres undefined) the screen gave 1.062%. NC(=O)c1ccc(CNC(=O)Nc2cn[nH]c2)cc1 gave 9.315%. Result for CCn1ccnc1CN1CCCN(C(=O)c2cnn(C)c2)CC1 was 10.64%. CCc1nccn1C1CCCN(C(=O)c2cnc[nH]2)C1 (centres undefined) read 2.236%. Cc1n[nH]cc1CNc1ccc2c(c1)N(C(=O)OC(C)(C)C)CCC2 read -7.197%.

With O=C(O)C(F)(F)F.[H][C@]12CCCC(N(C)Cc3ccccn3)[C@@]1([H])CN(c1ncc(C)cn1)C2 (some centres undefined) the screen gave 4.174%. Result for CO[C@H]1CCN(S(=O)(=O)c2cccs2)[C@H]1Cc1cccnc1.O=C(O)C(F)(F)F was 11.95%. COCCc1noc(CN2CCCCC2Cn2cccn2)n1 (centres undefined) gave 0.1952%. For O=C(Cc1cccc(O)c1)NCCCNC(=O)c1cccc(F)c1 the result was 2.017%. Result for Cc1noc(C)c1CN1CCCC2(CCN(C(=O)C3CC3)C2)C1 (centres undefined) was -10.29%. Cc1ccc(C(=O)NS(=O)(=O)c2cc(Cl)ccc2Cl)c(=O)[nH]1 read 0.919%. Result for O=C(O)C(F)(F)F.[H][C@@]12CCN(Cc3cnn(C)c3)[C@]1([H])CC[C@@H](C(=O)NCc1ccco1)O2 was 7.251%. With CCN(CC1CCOC1)C(=O)c1ccccc1S(C)(=O)=O (centres undefined) the screen gave 13.85%.

[H][C@@]12CN(C(=O)NC3CC3)C[C@]1([H])C(=O)N(Cc1cccc(F)c1)C2 gave -10.34%. For COCCc1noc(CNC2CCSC2)n1 (centres undefined) the result was -0.104%. COCc1nc(CNC2CCC3(CCNCC3)CC2)no1 read -6.064%. COCC1CN(C(=O)COc2ccccc2)Cc2cn(C)nc21.O=C(O)C(F)(F)F (centres undefined) gave -5.251%. Cc1n[nH]c(C2CN(Cc3nnc(C4CCC4)o3)CCO2)n1 (centres undefined) gave 7.328%. With O=C(O)C(F)(F)F.[H][C@@]12CCCO[C@]1([H])[C@H](N(C)Cc1ccco1)CN2C(=O)c1ccnnc1 the screen gave -8.887%. Cc1cccnc1C(=O)N1CCC(Cc2cnc3[nH]ccc3c2)CC1 read -1.374%. With Cc1ccccc1CC(=O)N1CCN(C2CCOC2=O)CC1 (centres undefined) the screen gave 1.12%.

O=C(C1CCOCC1)N1CCOCC(Cc2ncccn2)C1 (centres undefined) gave -7.737%. Result for Cc1noc(CN(CCc2cccs2)Cc2cccc(C#N)c2)n1 was -26.23% & -21.92%. With C[C@@]1(O)CCN(C2CCOCC2)C[C@H]1n1ccc(=O)[nH]c1=O the screen gave -1.907%. [H][C@]12CN(C(=O)c3cc(C)on3)CC[C@@]1(O)CCN(C(=O)N1CCCC1)C2 read -3.72%. With O=C(Cc1ccccn1)N1CCc2nc(-c3cnccn3)nc(O)c2C1 the screen gave -7.701%. O=C(O)C(F)(F)F.O=C(O)C(F)(F)F.[H][C@@]12CN(Cc3cccs3)CCC[C@]1(C(=O)OCC)CN(CCOC)C2 read -0.08562%. CCC(CNC1CCN(C(C)=O)CC1)Oc1ccccc1Cl (centres undefined) gave 8.171%. NC(=O)C1CN(Cc2c[nH]cn2)CCN(C2CCOCC2)C1 (centres undefined) gave -11.73%.

For O=C(O)C(F)(F)F.c1cnc(N2CCC3(CCN(CC4CCOC4)C3)CC2)nc1 (centres undefined) the result was -5.034%. CN(CCc1ccncc1)CC1CCCN1c1cccnn1 (centres undefined) read 3.163%. Cc1nc(C)c(C(=O)N2CCCC(n3ccnc3C)C2)s1 (centres undefined) gave -5.819%. For Cc1ccc2[nH]c(CN(C)Cc3n[nH]c4c3CCC4)nc2c1 the result was 17.54%. OCCc1cc(C2CCCN2c2ncccn2)n[nH]1 (centres undefined) read -13.47%. For Cc1ccoc1-c1nnc(CN2CCn3c(C)nnc3C2)o1 the result was 8.413%. Result for O=C(O)C(F)(F)F.O=C1CCC2(CCN(Cc3nccs3)CC2)N1Cc1ccccc1 was -18.11%. For CCNC(=O)CN1CCN(c2cc(C)nc(-c3ccncc3)n2)CC1 the result was 11.01%.

Result for CCc1cc(C)c(C(=O)N2CCCC2CC(=O)c2cnn(C)c2)o1 (centres undefined) was -13.6%. Cc1cn2c(n1)CCC(NC(=O)CCCn1cncn1)C2 (centres undefined) read 5.559%. [H][C@@]12CCN(S(=O)(=O)c3cc(C)cc(C)c3)C[C@]1(C(=O)NC)CCO2 read -1.476%. O=C(O)C(F)(F)F.[H][C@]12CN(c3ccccn3)C[C@@]1(C(=O)N(C)C)CCCN(S(=O)(=O)CC)C2 gave 3.139%. With Cc1noc(-c2cnc(NC3CC3)nc2-c2ccco2)c1C the screen gave 7.64%. For NCCCC(=O)NCC1(O)CCN(c2ccnc3cccnc23)C1 (centres undefined) the result was -1.422%. CC(NC(=O)NCCCN1CCCCCC1)c1nncn1C (centres undefined) gave 0.3158% & 3.843% & -10.44%.

Source: ChEMBL document CHEMBL3988442, “University of Dundee, Small-Polar-MMV Screening Library” (2021).